Here are results for 2 molecules from paper PMC3459922.

In one test the target is T1, Myc-Fbw8 (UniProt Q8N3Y1).
T1 sequence: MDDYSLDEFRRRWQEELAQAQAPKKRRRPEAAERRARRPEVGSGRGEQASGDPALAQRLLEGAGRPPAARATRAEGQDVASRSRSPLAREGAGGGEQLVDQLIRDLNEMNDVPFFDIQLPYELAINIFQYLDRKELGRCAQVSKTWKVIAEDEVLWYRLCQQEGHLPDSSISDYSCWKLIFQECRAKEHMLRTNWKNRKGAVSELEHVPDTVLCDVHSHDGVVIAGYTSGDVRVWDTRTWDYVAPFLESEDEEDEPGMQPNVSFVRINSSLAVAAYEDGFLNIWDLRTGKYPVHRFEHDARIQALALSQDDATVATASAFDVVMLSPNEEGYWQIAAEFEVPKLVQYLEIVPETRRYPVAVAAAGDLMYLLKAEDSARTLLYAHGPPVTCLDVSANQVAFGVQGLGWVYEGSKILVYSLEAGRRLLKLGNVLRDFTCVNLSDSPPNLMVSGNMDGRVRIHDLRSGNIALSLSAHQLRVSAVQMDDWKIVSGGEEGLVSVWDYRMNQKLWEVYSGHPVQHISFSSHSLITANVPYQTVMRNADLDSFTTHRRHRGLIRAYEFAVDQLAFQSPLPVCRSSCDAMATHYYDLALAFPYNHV
Nature of the test: co-IP; HeLa cells transfected with HA-CUL7, Flag-TBC1D3 and Myc-Fbw8; lysates (200 µg) immunoprecipitated with anti-TBC1D3 (2C7) or anti-Myc antibodies; immunoblot.

Test [1] addresses TBC1D3 purified from a baculoviral expression system (human). Nature of the test: pull-down; TBC1D3 adsorbed through a polyclonal anti-TBC1D3 antibody on protein A beads; 35S-methionine-labelled in vitro translated proteins incubated under native conditions; SDS-PAGE and autoradiography; only the target purified.

Results are given in words; binding and its absence hold for the method and conditions named. In cells and extracts the contact can be indirect. For some assays here: Binding can be weak; no strength is given. For some assays here: Tags and fused reporters may be left off the sequences shown.

Consider Flag-TBC1D3 (human), for which the binding result with Myc-Fbw8 was “binds”.

B1: full length SARA (Smad Anchor for Receptor Activation), in vitro translated (protein, UniProt O95405 1-1425)
chain: MENYFQAEAYNLDKVLDEFEQNEDETVSSTLLDTKWNKILDPPSHRLSFNPTLASVNESAVSNESQPQLKVFSLAHSAPLTTEEEDHCANGQDCNLNPEIATMWIDENAVAEDQLIKRNYSWDDQCSAVEVGEKKCGNLACLPDEKNVLVVAVMHNCDKRTLQNDLQDCNNYNSQSLMDAFSCSLDNENRQTDQFSFSINESTEKDMNSEKQMDPLNRPKTEGRSVNHLCPTSSDSLASVCSPSQLKDDGSIGRDPSMSAITSLTVDSVISSQGTDGCPAVKKQENYIPDEDLTGKISSPRTDLGSPNSFSHMSEGILMKKEPAEESTTEESLRSGLPLLLKPDMPNGSGRNNDCERCSDCLVPNEVRADENEGYEHEETLGTTEFLNMTEHFSESQDMTNWKLTKLNEMNDSQVNEEKEKFLQISQPEDTNGDSGGQCVGLADAGLDLKGTCISESEECDFSTVIDTPAANYLSNGCDSYGMQDPGVSFVPKTLPSKEDSVTEEKEIEESKSECYSNIYEQRGNEATEGSGLLLNSTGDLMKKNYLHNFCSQVPSVLGQSSPKVVASLPSISVPFGGARPKQPSNLKLQIPKPLSDHLQNDFPANSGNNTKNKNDILGKAKLGENSATNVCSPSLGNISNVDTNGEHLESYEAEISTRPCLALAPDSPDNDLRAGQFGISARKPFTTLGEVAPVWVPDSQAPNCMKCEARFTFTKRRHHCRACGKVFCASCCSLKCKLLYMDRKEARVCVICHSVLMNAQAWENMMSASSQSPNPNNPAEYCSTIPPLQQAQASGALSSPPPTVMVPVGVLKHPGAEVAQPREQRRVWFADGILPNGEVADAAKLTMNGTSSAGTLAVSHDPVKPVTTSPLPAETDICLFSGSITQVGSPVGSAMNLIPEDGLPPILISTGVKGDYAVEEKPSQISVMQQLEDGGPDPLVFVLNANLLSMVKIVNYVNRKCWCFTTKGMHAVGQSEIVILLQCLPDEKCLPKDIFNHFVQLYRDALAGNVVSNLGHSFFSQSFLGSKEHGGFLYVTSTYQSLQDLVLPTPPYLFGILIQKWETPWAKVFPIRLMLRLGAEYRLYPCPLFSVRFRKPLFGETGHTIMNLLADFRNYQYTLPVVQGLVVDMEVRKTSIKIPSNRYNEMMKAMNKSNEHVLAGGACFNEKADSHLVCVQNDDGNYQTQAISIHNQPRKVTGASFFVFSGALKSSSGYLAKSSIVEDGVMVQITAENMDSLRQALREMKDFTITCGKADAEEPQEHIHIQWVDDDKNVSKGVVSPIDGKSMETITNVKIFHGSEYKANGKVIRWTEVFFLENDDQHNCLSDPADHSRLTEHVAKAFCLALCPHLKLLKEDGMTKLGLRVTLDSDQVGYQAGSNGQPLPSQYMNDLDSALVPVIHGGACQLSEGPVVMELIFYILENIV
modifications: 35S-methionine label
Turning to B1, the binding entry in test [1] was “no binding”.
